# Measured values reported in patent US20190175528A1, “INHIBITION OF BIOFILM ORGANISMS” (NovaBiotics Limited, priority 2009, published 2019).
# Some entries share one result that the patent states for a list of compounds.
# System: methicillin-resistant S. aureus (MRSA) DSM 11729 planktonic cells
# Assay: Time course activity over a 48-h period against planktonic cells
# Format: cell-based, Staphylococcus aureus
# Settings: for concentration with complete bactericidal activity for the 48-h period: MRSA DSM 11729 planktonic cells, data not shown
# Source text: The range of concentrations tested as shown in the legends is in mg/ml.
Compound,duration of complete inhibition (0.03 mg/ml),duration of complete inhibition (0.06 mg/ml),duration of complete inhibition (0.125 and 0.25 mg/ml),concentration with complete bactericidal activity for the 48-h period
"N=C(N)NCCC[C@@H](N)C(=O)N[C@H](CCCNC(=N)N)C(=O)N[C@H](CCCNC(=N)N)C(=O)N[C@H](CCCNC(=N)N)C(=O)N[C@H](CCCNC(=N)N)C(=O)N[C@H](CCCNC(=N)N)C(=O)N[C@H](CCCNC(=N)N)C(=O)N[C@H](CCCNC(=N)N)C(=O)N[C@H](CCCNC(=N)N)C(=O)N[C@H](CCCNC(=N)N)C(=O)N[C@H](CCCNC(=N)N)C(=O)N[C@H](CCCNC(=N)N)C(=O)N[C@H](CCCNC(=N)N)C(=O)O [NP339, dRdRdRdRdRdRdRdRdRdRdRdRdR]",≥ 15 h,at least 20 h,at least 24 h,above 0.5 mg/ml
Ac-dRdRdRdRdRdRdRdRdRdRdRdRdR-CONH [NP340],≥ 15 h,at least 20 h,at least 24 h,above 0.5 mg/ml
